Biological target: CaV1.2 (ICaL) (Homo sapiens, UniProt Q13936)
Assay: in vitro
Conditions: pH 7.4
Method: and CiPA Initiative Studies
=============================================================
In vitro studies on other ion channels […]
through NaV1.5, KV4.3, KV7.1/mink, Kir2.1, KV1.5, CaV1.2 and CaV3.2 channels.
35-mm dish culture in the conditions mentioned in standard cell culture conditions. Experiments were performed with a cell density enabling isolated cells for patch clamping. Cells were continuously superfused with extracellular medium (1-2 mL∙minute-1) at room temperature.
D-glucose 10, HEPES 10 and the final pH adjusted to 7.4±0.02 with NaOH for recording NaV1.5, KV4.3, KV7.1/mink, Kir2.1, KV1.5 and CaV3.2 currents. It was (in mM): NaCl 110, KCl 4, BaCl2 20, MgCl2 1, D-glucose 20, HEPES 10 and the final pH adjusted to 7.4 ± 0.02 with NaOH for recording the CaV1.2 current. Compositions of the intracellular solution to fill the pipette are […]
After formation of a Gigaohm seal between the patch electrodes and individual cells (pipette resistance range: 2.0 MΩ - 7.0 MΩ; seal resistance range: > 1 GΩ) the cell membrane across the pipette tip was ruptured to assure electrical access to the cell interior (whole-cell patch-configuration). […] As soon as a stable seal was established outward tail currents were measured upon pulses described in the Table S2. If current density was judged to be too low for measurement, another cell was recorded. […]

Chains of the proteins cited; added tags and fusions are not shown.
UniProt Q13936, whole entry: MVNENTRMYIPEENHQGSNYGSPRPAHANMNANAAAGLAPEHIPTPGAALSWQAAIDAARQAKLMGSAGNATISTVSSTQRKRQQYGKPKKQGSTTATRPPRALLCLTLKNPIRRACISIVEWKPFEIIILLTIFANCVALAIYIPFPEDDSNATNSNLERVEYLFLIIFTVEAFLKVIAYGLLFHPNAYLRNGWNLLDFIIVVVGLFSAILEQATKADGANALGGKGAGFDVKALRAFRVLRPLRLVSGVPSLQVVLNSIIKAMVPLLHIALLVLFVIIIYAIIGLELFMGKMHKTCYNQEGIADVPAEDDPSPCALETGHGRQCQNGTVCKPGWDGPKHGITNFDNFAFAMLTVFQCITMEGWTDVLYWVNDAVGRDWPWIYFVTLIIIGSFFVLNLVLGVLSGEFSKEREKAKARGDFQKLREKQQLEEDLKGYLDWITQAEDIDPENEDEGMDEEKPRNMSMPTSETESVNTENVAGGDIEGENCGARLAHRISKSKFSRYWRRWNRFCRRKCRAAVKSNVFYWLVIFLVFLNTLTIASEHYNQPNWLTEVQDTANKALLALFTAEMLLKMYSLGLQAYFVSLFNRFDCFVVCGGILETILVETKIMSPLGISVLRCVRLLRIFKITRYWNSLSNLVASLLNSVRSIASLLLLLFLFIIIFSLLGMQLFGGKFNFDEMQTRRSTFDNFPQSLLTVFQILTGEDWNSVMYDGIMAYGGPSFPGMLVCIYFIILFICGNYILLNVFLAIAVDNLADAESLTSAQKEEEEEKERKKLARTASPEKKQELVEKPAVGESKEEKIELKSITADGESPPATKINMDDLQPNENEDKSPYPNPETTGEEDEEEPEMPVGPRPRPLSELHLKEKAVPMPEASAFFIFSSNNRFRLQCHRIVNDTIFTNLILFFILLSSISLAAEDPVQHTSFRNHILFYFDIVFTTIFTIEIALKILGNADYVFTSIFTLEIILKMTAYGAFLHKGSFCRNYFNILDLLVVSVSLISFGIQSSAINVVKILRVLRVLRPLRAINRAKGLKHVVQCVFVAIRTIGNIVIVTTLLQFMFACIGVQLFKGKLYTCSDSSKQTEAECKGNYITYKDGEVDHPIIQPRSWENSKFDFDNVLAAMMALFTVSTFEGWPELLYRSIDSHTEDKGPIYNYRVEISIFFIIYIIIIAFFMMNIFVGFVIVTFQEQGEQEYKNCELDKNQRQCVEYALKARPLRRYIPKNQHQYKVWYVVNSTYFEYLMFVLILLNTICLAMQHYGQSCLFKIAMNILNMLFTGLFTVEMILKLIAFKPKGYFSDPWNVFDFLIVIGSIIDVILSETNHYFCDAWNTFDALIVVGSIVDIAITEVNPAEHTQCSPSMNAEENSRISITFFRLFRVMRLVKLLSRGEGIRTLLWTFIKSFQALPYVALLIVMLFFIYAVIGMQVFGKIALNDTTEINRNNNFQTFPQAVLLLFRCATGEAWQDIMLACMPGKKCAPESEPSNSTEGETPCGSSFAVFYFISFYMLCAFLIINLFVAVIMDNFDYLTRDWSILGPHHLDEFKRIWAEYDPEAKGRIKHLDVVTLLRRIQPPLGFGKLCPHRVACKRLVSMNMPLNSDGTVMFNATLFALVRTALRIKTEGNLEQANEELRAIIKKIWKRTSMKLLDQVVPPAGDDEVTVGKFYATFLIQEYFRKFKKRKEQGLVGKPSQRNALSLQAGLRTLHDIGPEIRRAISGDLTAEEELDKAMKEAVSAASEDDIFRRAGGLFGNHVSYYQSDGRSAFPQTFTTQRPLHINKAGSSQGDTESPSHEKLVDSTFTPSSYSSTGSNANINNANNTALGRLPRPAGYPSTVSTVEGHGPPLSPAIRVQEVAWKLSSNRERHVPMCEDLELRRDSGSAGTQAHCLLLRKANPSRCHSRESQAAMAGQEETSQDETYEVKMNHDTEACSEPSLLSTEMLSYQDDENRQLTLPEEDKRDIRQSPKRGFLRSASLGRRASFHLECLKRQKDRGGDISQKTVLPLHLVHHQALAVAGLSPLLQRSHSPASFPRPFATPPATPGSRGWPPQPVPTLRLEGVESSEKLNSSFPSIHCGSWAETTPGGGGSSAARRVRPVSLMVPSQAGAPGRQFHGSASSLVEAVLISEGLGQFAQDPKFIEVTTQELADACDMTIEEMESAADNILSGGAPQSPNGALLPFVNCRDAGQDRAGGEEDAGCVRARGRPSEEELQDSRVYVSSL

SMILES: COC(=O)C1=C(C)NC(C)=C(C(=O)OC)C1c1ccccc1[N+](=O)[O-] [Nifedipine, reference compound]
- inhibition at 1 µM: 88%
